Measured values from PubChem BioAssay AID588590 (National Center for Advancing Translational Sciences (NCATS), 2011).
About 4,000 (1%) of roughly 390,000 compounds were called active. This list was built around the results that the source calls inconclusive (neither active nor inactive); the mix of calls is not that of the screen. Calls come from the whole dose curve; as a rule, active = well fitted inhibition curve with a large enough effect; inconclusive = small, poorly fitted or top-dose-only effect, or another doubt; inactive = no such curve, though single readings can be large or run the other way. Potencies beside an inconclusive call are fits to weak or partial responses and may not hold up.

Amino acid sequences for entries named in this document (tags omitted). A change or cut given only in a name is not applied to a line headed by its entry.
UniProt Q9UNA4: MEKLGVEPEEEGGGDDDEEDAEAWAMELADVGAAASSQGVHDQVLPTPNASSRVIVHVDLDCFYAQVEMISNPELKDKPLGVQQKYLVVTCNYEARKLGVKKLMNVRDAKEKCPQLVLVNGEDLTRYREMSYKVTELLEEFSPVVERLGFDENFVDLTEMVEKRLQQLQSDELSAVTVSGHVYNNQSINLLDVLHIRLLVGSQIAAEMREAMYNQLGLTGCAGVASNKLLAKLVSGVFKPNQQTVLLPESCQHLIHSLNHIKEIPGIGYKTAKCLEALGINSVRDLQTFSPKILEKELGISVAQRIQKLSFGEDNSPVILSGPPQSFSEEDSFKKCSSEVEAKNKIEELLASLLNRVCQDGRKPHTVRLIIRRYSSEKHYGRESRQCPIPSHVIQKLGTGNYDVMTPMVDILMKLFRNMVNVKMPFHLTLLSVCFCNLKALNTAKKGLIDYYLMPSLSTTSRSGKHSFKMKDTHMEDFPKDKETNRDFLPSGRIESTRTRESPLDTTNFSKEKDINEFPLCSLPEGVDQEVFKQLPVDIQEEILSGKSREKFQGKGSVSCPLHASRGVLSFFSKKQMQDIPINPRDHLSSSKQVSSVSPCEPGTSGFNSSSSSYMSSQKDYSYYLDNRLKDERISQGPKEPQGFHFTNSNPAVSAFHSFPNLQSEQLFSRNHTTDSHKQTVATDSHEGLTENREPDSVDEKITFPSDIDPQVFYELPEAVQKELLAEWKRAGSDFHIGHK

target: DNA polymerase iota (Homo sapiens) (UniProt Q9UNA4); experiment: qHTS for Inhibitors of Polymerase Iota; conditions: Pol iota fluorescent replication assay, 10 min; series mostly up to 115 µM
Summary of the method: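 Pol iota at 10 nM preincubated 15 min with compounds at room temperature; reaction started with fluorescent substrate, 50 nM final. Fluorescence read kinetically at 0 and 10 min; buffer-only wells as negative control.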
Potency is the fitted concentration of half-maximal effect.

SMILES | Potency
COc1ccc(OC)c(NC(=O)CC2C(=O)NCCN2C(=O)Nc2cccc(Cl)c2)c1 (stereo unspecified) | inconclusive: 100 µM [inhibitor, single point]
COc1ccc(NC(=S)NC(NC(=O)CCl)C(Cl)(Cl)Cl)c([N+](=O)[O-])c1 (stereo unspecified) | inconclusive: 12.6 µM [inhibitor, partial curve, poor fit]
Cc1ccc(S(=O)(=O)NNc2ccccc2)cc1 | inactive
CCC1(c2ccc(F)cc2)NC(=O)N(CC(=O)N2c3ccccc3NC(=O)CC2C)C1=O (stereo unspecified) | inconclusive: 39.8 µM [inhibitor, partial curve, poor fit]
CC(C)c1nc(SCC(=O)N2c3ccccc3CC2C)c2ccccc2n1 (stereo unspecified) | inconclusive: 28.2 µM [inhibitor, partial curve, poor fit]
O=C(Nc1cccc(N=Cc2cc(Cl)cc(Br)c2O)c1)c1ccco1 | inactive
COc1ccc2oc(C(=O)OCC(=O)Nc3ccc(OC)c(S(N)(=O)=O)c3)c(C)c2c1 | inconclusive: 39.8 µM [inhibitor, partial curve, poor fit]
CC(=O)n1c2c(c3ccccc31)OC(N)=C(C#N)C2c1cccc(Cl)c1Cl (stereo unspecified) | inconclusive: 28.2 µM [inhibitor, single point]
CCCCn1c(=O)[nH]c(=O)c2c1nc(-c1ccc3ccccc3c1)n2CC | inactive
COc1ccc(CCNC(=S)Nc2ccc(OC)cc2)cc1 | inactive
Cc1c(Cl)c(=O)oc2cc(OCC(=O)NCc3cccs3)ccc12 | inconclusive: 17.8 µM [inhibitor, full curve, poor fit]
C[C@H](CO)N1C[C@H](C)[C@H](CN(C)C(=O)Nc2ccc(C(F)(F)F)cc2)Oc2c(NC(=O)c3ccncc3)cccc2C1=O | inconclusive: 39.8 µM [inhibitor, single point]
CCN(CC)CCOc1ccc2c(c1)C(=NNC(=O)c1ccccn1)c1cc(OCCN(CC)CC)ccc1-2 | inconclusive: 8.91 µM [inhibitor, full curve, poor fit]
Cn1cnc([N+](=O)[O-])c1S(=O)(=O)Oc1cccc2ccccc12 | inconclusive: 20 µM [inhibitor, partial curve, poor fit]
CCOC(=O)N/N=C\C=C\c1ccco1 | inconclusive: 20 µM [inhibitor, full curve, poor fit]
Cc1ccc2nc(NC(=O)CSc3nccn3Cc3ccccc3)sc2c1 | inactive
COc1cc(NC(=O)c2cc(-c3cccc(Cl)c3)on2)c(OC)cc1Cl | inactive
Cc1ccccc1CSc1cn(CC(=O)N2CCCC2)c2ccccc12 | inactive
CC(C)(C)c1ccc(C(=O)CC(Sc2ccc(Cl)cc2)C(=O)O)cc1 (stereo unspecified) | inconclusive: 20 µM [inhibitor, partial curve, poor fit]
O=C(CCC1CCCCC1)NCCN1C2=NC[C@H](Cc3ccccc3)N2C[C@H]1Cc1ccc(O)cc1 | inconclusive: 12.6 µM [inhibitor, partial curve, poor fit]
c1ccc(OCc2nn3c(-c4n[nH]c5c4CCC5)nnc3s2)cc1 | inconclusive: 112 µM [inhibitor, single point]
O=C(Cn1cnc2c(nnn2-c2ccccc2)c1=O)NCc1ccc(F)cc1 | inconclusive: 56.2 µM [inhibitor, partial curve, poor fit]

Single values from above:
Value of CC(=O)n1c2c(c3ccccc31)OC(N)=C(C#N)C2c1cccc(Cl)c1Cl (stereo unspecified) under Potency: inconclusive: 28.2 µM [inhibitor, single point]
Value of CC(C)(C)c1ccc(C(=O)CC(Sc2ccc(Cl)cc2)C(=O)O)cc1 (stereo unspecified) under Potency: inconclusive: 20 µM [inhibitor, partial curve, poor fit]

Next part:

SMILES | Potency
CC1(C)c2ccccc2N2CC(=O)N(CC(N)=O)C21C (stereo unspecified) | inconclusive: 79.4 µM [inhibitor, partial curve, poor fit]
CCOC(=O)c1ccccc1NC(=O)c1ccc2nccnc2c1 | inconclusive: 12.6 µM [inhibitor, full curve, poor fit]
CCOc1ccc(NC(=O)Cn2cc(C(=O)c3ccc(CC)cc3)c(=O)c3ccc(C)nc32)cc1 | inconclusive: 89.1 µM [inhibitor, single point]
O=C(Cn1c(SCC(=O)N2CCc3ccccc3C2)nc2ccccc21)NC1CCCC1 | inactive
O=C(OCc1nc2ccccc2s1)C1CCN(C2=NS(=O)(=O)c3ccccc32)CC1 | inconclusive: 39.8 µM [inhibitor, full curve, poor fit]
CN1C(=O)N(CC(=O)NCc2ccc(Cl)cc2Cl)C(=O)C12CCCCC2 | inconclusive: 63.1 µM [inhibitor, single point]
CCOc1ccccc1NC(=O)c1cccc(NC2=NC3CS(=O)(=O)CC3S2)c1 (stereo unspecified) | inconclusive: 10 µM [inhibitor, full curve, poor fit]
Cc1cc(C)c(/C=C/c2onc(C)c2S(=O)(=O)N2CCC(C(=O)Nc3ccc(Cl)c(C(F)(F)F)c3)CC2)c(C)c1 | inactive
O=C(Nc1ccccc1Cl)C1C(c2ccccc2)C1(Cl)Cl (stereo unspecified) | inconclusive: 10 µM [inhibitor, partial curve]
Cn1c(SCC(=O)N/N=C/c2ccc(O)c(O)c2)nc2ccccc21 | inconclusive: 50.1 µM [inhibitor, partial curve, poor fit]
COc1ccc(CCC(=O)Nc2nc(C)c(C(=O)N(C)C)s2)cc1 | inconclusive: 20 µM [inhibitor, partial curve, poor fit]
O=C(CCc1ccccc1)NCc1ccc2c(c1)CCN2C(=O)c1ccc(Cl)cc1 | inactive
CC1CCCCN1C(=O)CSc1nc2ccccc2n1CC(=O)N1CCc2ccccc21 (stereo unspecified) | inconclusive: 39.8 µM [inhibitor, single point]
Cc1cc(O)c(C2(O)C(=O)Nc3ccccc32)cc1C (stereo unspecified) | inconclusive: 89.1 µM [inhibitor, single point]
O=c1[nH]c2ccc(NCc3ccccc3F)cc2[nH]1 | inactive
Cc1ccc(C(=O)NN2CC(O)=C(c3nc(-c4cccc([N+](=O)[O-])c4)cs3)C2=N)cc1 | inconclusive: 11.2 µM [inhibitor, partial curve, poor fit]
C=C(C)CN(CC)C(=O)CSc1nc2ncc(Cl)cc2[nH]1 | inconclusive: 56.2 µM [inhibitor, partial curve, poor fit]
CC1=C(C(=O)OC(C)C)C(c2ccc(N(C)C)cc2)C2=C(CC(C)(C)CC2=O)N1 (stereo unspecified) | inconclusive: 39.8 µM [inhibitor, single point]
COc1cc(/C=N/NC(=O)c2ccc(O)cc2)ccc1OCC(=O)Nc1cccc([N+](=O)[O-])c1 | inconclusive: 35.5 µM [inhibitor, full curve]
O=C(Nc1ccc2oc(=O)ccc2c1)c1ccc(-c2cccc(Cl)c2)o1 | inactive
Oc1ccc(C[C@H]2CNCCN2CCC23CC4CC(CC(C4)C2)C3)cc1 | inconclusive: 25.1 µM [inhibitor, single point]
COc1ccc(OC)c2c(=O)cc(C(=O)O)[nH]c12 | inactive

SMILES | Potency
CCCc1ccc2oc(C(=O)N3CCC(COC)C3)c(C)c2c1 (stereo unspecified) | inactive
Cc1ccc(NC(=O)c2nsc(Cl)c2Cl)cc1 | inconclusive: 56.2 µM [inhibitor, partial curve, poor fit]
O=C1S/C(=C\C=C\c2ccco2)C(=O)N1c1ccc(O)cc1 | active: 31.6 µM
CSC1=NSC2=NC(=O)/C(=C/c3coc4ccc(O)cc4c3=O)C(=N)N12 | inconclusive: 10 µM [inhibitor, full curve, poor fit]
Cc1ccccc1-c1cc(C(=O)N2CCCC2)c2ccccc2n1 | active: 25.1 µM
COCc1ccc(-c2c(-c3cccc(OC)c3)sc3ccc(OC)cc23)cc1 | inconclusive: 39.8 µM [inhibitor, partial curve, poor fit]
COC(=O)c1cc(NC(=O)c2ccc(C)cc2)c(=O)oc1C | inconclusive: 100 µM [inhibitor, partial curve, poor fit]
CCCNC(=O)c1nn2cc(Br)cnc2c1Br | inconclusive: 79.4 µM [inhibitor, partial curve, poor fit]
Cc1ccn2c(=O)nc(SCC(=O)NCc3ccco3)nc2c1 | inconclusive: 12.6 µM [inhibitor, partial curve, poor fit]
CCC(C)[C@@H](CN)NCC1(c2ccccc2)CC1 (stereo partly specified) | inconclusive: 89.1 µM [inhibitor, single point]
NC(=O)c1ccc(-n2nnnc2SCC(=O)c2ccc(O)c(O)c2)cc1 | active: 14.1 µM
O=C(CNC(=O)c1cccs1)NCC(=O)OCc1c(F)cccc1Cl | inactive
Cc1ccc(NC(=O)c2ccc([N+](=O)[O-])o2)cc1C | inconclusive: 50.1 µM [inhibitor, partial curve, poor fit]
CCCCOc1ccc(C(=O)Nc2onc3c2CCCC3)cc1 | inactive
COC(=O)C1CCN(C(c2ccccc2Cl)c2sc3nc(-c4ccco4)nn3c2O)CC1 (stereo unspecified) | inconclusive: 89.1 µM [inhibitor, single point]
CN(C)c1ccc(C(=O)OCc2ccccc2)cc1 | inconclusive: 31.6 µM [inhibitor, single point]
CCOC(=O)C(C)Sc1nc2c(c(=O)[nH]c(=O)n2C)n1C/C=C(/C)Cl (stereo unspecified) | inconclusive: 22.4 µM [inhibitor, full curve]
O=C(N/N=C/c1cc(Cl)cc([N+](=O)[O-])c1O)C1CC1 | inconclusive: 89.1 µM [inhibitor, single point]
CCn1c(NCc2ccc(N(C)C)cc2)nc2ccccc21 | inactive
O=C(NCCc1ccccc1)c1cc2sccc2n1Cc1ccc(F)cc1 | inactive
NNC(=O)c1oc2nc(-c3ccco3)cc(-c3ccco3)c2c1N | inconclusive: 1 µM [inhibitor, full curve]
COc1ccccc1Nc1nc(-c2sc(NC(=O)C(C)(C)C)nc2C)cs1 | inconclusive: 20 µM [inhibitor, full curve, poor fit]

Laid out differently: two of the compounds above
SMILES,Potency
O=c1[nH]c2ccc(NCc3ccccc3F)cc2[nH]1,inactive
O=C1S/C(=C\C=C\c2ccco2)C(=O)N1c1ccc(O)cc1,active: 31.6 µM
